Experimental data from the supplement of paper PMC12823440, “Inhibitors supercharge kinase turnover through native proteolytic circuits” (Nature, 2025).
Where a name gives a salt, the structure may show the parent alone. Some of the results follow. Hit calls seldom repeat between salt and free forms of one compound.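 Kinases, fused to nanoluciferase, were expressed in K562 cells; luminescence was measured every 4 h from 2 to 18 h as percent of control (DMSO = 100%, positive control = 0%). A time point is decreased if signal falls significantly (2 sigma). Hits were called by the authors by a rule that is not shown; the count of time points alone does not decide it.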

Chains of the proteins cited; added tags and fusions are not shown. Lines headed by an entry give the natural chain unless they say otherwise; changes in a name come on top.
UniProt P50613: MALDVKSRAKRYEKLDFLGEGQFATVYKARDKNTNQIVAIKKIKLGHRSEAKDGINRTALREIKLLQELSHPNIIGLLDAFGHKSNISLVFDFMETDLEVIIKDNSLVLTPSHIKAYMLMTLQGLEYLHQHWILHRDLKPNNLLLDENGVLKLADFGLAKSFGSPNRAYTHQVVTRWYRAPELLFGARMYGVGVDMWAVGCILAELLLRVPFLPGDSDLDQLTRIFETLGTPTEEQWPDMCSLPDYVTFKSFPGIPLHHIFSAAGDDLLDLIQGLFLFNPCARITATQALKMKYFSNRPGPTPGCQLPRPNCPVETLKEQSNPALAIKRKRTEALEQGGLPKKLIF
UniProt P50750, whole entry: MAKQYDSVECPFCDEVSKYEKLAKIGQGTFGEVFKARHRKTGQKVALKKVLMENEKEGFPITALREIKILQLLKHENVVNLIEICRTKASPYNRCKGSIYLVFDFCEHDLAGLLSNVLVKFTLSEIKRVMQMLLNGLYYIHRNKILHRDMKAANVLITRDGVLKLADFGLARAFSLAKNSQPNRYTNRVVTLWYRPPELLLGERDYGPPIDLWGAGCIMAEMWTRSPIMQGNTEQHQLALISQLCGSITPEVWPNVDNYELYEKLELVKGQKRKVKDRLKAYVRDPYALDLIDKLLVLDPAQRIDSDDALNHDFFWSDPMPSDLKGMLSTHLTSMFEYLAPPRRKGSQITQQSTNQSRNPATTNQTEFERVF
UniProt O96017, whole entry: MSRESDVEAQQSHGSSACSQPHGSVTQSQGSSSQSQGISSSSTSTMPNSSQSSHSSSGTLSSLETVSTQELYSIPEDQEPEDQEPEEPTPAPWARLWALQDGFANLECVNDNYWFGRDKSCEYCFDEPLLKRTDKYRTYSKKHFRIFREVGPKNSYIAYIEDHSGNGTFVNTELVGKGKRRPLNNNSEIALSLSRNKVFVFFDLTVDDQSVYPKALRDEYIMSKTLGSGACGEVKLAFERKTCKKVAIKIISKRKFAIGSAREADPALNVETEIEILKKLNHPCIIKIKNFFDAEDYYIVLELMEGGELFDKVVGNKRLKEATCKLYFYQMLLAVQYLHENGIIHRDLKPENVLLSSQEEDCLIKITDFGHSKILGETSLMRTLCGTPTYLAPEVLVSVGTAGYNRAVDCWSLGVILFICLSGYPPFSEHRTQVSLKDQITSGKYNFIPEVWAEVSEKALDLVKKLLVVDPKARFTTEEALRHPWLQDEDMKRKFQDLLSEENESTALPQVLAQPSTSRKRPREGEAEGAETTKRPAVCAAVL
UniProt P07333, whole entry: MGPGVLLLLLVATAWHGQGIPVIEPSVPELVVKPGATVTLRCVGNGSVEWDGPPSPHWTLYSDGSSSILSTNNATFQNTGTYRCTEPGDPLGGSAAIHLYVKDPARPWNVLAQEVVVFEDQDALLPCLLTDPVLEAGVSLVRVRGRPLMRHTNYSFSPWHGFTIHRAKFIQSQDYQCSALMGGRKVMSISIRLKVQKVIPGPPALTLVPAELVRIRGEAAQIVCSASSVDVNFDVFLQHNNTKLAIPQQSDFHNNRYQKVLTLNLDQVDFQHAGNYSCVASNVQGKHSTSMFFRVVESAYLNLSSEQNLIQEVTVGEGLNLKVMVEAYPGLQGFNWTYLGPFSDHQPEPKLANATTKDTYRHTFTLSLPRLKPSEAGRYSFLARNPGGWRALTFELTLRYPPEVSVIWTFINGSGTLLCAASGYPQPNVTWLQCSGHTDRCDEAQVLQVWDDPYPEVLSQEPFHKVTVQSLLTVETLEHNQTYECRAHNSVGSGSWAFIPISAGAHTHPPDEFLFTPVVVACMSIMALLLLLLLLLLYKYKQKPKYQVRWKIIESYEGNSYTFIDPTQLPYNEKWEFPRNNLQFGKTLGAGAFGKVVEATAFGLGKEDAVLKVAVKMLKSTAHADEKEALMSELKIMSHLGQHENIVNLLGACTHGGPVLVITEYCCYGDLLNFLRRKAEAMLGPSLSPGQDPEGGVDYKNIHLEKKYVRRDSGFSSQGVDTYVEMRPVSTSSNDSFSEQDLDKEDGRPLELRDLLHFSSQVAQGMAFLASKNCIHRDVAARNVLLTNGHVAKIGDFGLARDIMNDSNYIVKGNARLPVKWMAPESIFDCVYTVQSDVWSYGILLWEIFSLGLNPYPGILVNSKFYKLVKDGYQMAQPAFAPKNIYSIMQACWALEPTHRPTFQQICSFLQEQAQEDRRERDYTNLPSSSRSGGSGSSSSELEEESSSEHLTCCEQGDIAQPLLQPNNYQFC
UniProt P41240: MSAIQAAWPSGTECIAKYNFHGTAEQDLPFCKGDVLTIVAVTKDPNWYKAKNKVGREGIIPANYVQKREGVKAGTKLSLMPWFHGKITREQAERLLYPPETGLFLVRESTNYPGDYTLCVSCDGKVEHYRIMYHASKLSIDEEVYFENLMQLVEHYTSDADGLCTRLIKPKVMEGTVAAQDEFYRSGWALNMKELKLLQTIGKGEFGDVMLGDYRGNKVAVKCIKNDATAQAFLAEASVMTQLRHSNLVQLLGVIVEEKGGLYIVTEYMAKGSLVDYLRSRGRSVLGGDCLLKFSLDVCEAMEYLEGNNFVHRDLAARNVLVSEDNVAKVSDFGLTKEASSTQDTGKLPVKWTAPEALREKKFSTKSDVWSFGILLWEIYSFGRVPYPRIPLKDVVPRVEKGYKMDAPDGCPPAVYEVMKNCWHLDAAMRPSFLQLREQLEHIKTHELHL
UniProt P48729: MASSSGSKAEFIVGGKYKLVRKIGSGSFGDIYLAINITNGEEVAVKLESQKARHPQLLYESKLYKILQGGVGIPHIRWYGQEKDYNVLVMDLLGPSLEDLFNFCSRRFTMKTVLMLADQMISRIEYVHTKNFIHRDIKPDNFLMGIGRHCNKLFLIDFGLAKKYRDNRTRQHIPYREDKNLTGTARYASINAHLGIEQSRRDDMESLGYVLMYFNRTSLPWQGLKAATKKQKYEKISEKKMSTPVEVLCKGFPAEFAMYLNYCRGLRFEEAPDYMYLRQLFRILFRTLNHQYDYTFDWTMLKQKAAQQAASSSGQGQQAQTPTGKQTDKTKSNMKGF
UniProt P48730: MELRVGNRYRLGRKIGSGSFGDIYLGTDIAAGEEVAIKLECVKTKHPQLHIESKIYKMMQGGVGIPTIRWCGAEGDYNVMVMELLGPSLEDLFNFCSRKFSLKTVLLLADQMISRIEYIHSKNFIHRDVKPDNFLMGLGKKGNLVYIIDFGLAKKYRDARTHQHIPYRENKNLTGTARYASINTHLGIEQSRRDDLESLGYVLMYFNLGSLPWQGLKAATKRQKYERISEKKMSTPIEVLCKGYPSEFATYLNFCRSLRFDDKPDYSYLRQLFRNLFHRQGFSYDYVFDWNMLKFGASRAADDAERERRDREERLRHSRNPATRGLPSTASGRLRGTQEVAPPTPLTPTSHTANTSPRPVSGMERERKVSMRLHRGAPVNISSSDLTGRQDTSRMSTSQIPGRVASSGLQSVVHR
UniProt Q08345: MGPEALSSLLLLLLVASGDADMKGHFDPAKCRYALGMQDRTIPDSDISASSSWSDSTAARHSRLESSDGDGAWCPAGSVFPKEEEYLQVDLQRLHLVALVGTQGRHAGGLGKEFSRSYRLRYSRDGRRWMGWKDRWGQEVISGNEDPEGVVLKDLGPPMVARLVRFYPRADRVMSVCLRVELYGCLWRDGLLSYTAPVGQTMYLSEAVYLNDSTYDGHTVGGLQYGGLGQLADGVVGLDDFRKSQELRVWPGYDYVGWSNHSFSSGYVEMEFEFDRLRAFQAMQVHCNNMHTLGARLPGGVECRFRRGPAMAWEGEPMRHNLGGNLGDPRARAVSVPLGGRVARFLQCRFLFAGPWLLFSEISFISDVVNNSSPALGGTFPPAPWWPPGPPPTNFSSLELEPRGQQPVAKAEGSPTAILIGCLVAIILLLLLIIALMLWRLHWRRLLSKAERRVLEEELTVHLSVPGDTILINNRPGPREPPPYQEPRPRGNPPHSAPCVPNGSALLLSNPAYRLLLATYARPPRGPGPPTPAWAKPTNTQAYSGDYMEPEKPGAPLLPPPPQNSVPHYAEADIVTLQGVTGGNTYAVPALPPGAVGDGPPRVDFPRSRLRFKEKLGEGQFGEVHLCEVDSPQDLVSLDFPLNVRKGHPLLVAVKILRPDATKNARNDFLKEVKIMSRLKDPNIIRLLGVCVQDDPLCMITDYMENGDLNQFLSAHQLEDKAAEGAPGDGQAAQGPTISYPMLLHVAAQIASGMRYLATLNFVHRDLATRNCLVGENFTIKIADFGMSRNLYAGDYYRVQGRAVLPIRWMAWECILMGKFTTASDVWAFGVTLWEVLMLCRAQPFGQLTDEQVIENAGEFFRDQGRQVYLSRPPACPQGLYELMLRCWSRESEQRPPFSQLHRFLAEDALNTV
UniProt Q9Y463, whole entry, looked up: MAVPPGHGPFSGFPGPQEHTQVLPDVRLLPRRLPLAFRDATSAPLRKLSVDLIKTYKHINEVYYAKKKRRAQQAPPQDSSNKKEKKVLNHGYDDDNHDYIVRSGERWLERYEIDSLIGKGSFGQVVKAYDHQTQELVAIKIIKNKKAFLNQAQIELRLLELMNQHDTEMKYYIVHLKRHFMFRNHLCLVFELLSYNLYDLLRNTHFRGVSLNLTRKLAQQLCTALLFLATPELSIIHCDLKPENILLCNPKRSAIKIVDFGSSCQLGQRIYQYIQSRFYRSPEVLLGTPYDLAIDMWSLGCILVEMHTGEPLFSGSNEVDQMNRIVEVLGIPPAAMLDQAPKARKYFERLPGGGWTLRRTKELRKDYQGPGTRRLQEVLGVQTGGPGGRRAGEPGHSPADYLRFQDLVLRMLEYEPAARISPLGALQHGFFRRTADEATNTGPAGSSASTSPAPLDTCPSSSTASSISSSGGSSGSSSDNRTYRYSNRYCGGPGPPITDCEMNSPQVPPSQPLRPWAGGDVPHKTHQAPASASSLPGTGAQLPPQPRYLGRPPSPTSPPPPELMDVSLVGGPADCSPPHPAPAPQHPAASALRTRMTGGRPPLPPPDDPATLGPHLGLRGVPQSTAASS
UniProt Q92630: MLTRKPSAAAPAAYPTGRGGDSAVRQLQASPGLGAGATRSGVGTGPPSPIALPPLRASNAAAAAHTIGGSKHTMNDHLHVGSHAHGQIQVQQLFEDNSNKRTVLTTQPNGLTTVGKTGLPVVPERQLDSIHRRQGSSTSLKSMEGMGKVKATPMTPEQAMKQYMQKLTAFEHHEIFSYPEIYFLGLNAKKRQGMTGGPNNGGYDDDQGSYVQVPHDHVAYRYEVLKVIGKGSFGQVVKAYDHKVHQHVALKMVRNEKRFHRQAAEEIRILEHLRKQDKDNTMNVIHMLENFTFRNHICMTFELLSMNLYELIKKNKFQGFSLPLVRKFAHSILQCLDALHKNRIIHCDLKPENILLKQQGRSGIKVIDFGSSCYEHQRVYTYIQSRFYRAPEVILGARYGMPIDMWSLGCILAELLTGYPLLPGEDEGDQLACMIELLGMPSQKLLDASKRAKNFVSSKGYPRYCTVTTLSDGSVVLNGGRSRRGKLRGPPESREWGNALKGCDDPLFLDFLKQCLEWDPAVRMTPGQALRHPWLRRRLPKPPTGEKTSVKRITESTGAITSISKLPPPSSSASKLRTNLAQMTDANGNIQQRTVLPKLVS

Assays:
Assay in all cases: kinase-Nluc reporter destabilization hit call (1 = scored as downregulated) (binary); higher = compound decreases kinase abundance
Settings in all cases: K562; 2-18 h
CDK7 = CDK7 (UniProt P50613)
CDK9 = CDK9 (UniProt P50750)
CHEK2 = CHEK2 (UniProt O96017)
CSF1R = CSF1R (UniProt P07333)
CSK = CSK (UniProt P41240)
CSNK1A1 = CSNK1A1 (UniProt P48729)
CSNK1D = CSNK1D (UniProt P48730)
DDR1 = DDR1 (UniProt Q08345)
DYRK1B = DYRK1B (UniProt Q9Y463)
DYRK2 = DYRK2 (UniProt Q92630)

Measured: kinase-Nluc reporter destabilization hit call

N#CC(c1ccnc(NCCc2cccnc2)n1)c1nc2ccccc2s1 (stereo not given) (10 µM)
inactive: CDK7 = 0 | CDK9 = 0 | CHEK2 = 0 | CSF1R 0 | CSK 0 | CSNK1A1 = 0 | CSNK1D 0 | DDR1 = 0 | DYRK1B 0 | DYRK2 = 0

CCn1c(=O)c(-c2ccc(-c3cncs3)cc2Cl)cc2cnc(Nc3ccc(N4CCN(C)CC4)cc3)nc21 (2.5 µM)
inactive: CDK7 = 0 | CDK9 = 0 | CHEK2 = 0 | CSF1R 0 | CSK 0 | CSNK1A1 = 0 | CSNK1D 0 | DDR1 = 0 | DYRK1B 0 | DYRK2 = 0

O=C1NC(=O)/C(=C/c2ccc3c(c2)OC(F)(F)O3)S1 (10 µM)
inactive: CDK7 = 0 | CDK9 = 0 | CHEK2 = 0 | CSF1R 0 | CSK 0 | CSNK1A1 = 0 | CSNK1D 0 | DDR1 = 0 | DYRK1B 0 | DYRK2 = 0

O=c1cc(O)cc(/C=C/c2ccc(O)c(O)c2)o1 [Hispidin] (10 µM)
inactive: CDK7 = 0 | CDK9 = 0 | CHEK2 = 0 | CSF1R 0 | CSK 0 | CSNK1A1 = 0 | CSNK1D 0 | DDR1 = 0 | DYRK1B 0 | DYRK2 = 0

COC1(C(=O)N2Cc3nc(Cl)nc(N[C@H](C)c4cc(N)cc(C(F)(F)F)c4)c3C2)CCOCC1 (10 µM)
inactive: CDK7 = 0 | CDK9 = 0 | CHEK2 = 0 | CSF1R 0 | CSK 0 | CSNK1A1 = 0 | CSNK1D 0 | DDR1 = 0 | DYRK1B 0 | DYRK2 = 0

COc1ccc2[nH]cc(/C=C3\C(=O)Nc4ccc(NC(=O)CCN5CCCCC5)cc43)c2c1 (2.5 µM)
inactive: CDK7 = 0 | CDK9 = 0 | CHEK2 = 0 | CSF1R 0 | CSK 0 | CSNK1A1 = 0 | CSNK1D 0 | DDR1 = 0 | DYRK1B 0 | DYRK2 = 0

NCCN1CCN(C/C=C/C(=O)N2CCC[C@@H](n3nc(-c4ccc(Oc5ccccc5)cc4)c4c(N)ncnc43)C2)CC1 [Ibrutinib-MPEA] (10 µM)
inactive: CDK7 = 0 | CDK9 = 0 | CHEK2 = 0 | CSF1R 0 | CSK 0 | CSNK1A1 = 0 | CSNK1D 0 | DDR1 = 0 | DYRK1B 0 | DYRK2 = 0

Three structures from above, arranged by number of heavy atoms, ascending.
O=C1NC(=O)/C(=C/c2ccc3c(c2)OC(F)(F)O3)S1 (10 µM)
inactive: CDK7 = 0 | CDK9 = 0 | CHEK2 = 0 | CSF1R 0 | CSK 0 | CSNK1A1 = 0 | CSNK1D 0 | DDR1 = 0 | DYRK1B 0 | DYRK2 = 0

COC1(C(=O)N2Cc3nc(Cl)nc(N[C@H](C)c4cc(N)cc(C(F)(F)F)c4)c3C2)CCOCC1 (10 µM)
inactive: CDK7 = 0 | CDK9 = 0 | CHEK2 = 0 | CSF1R 0 | CSK 0 | CSNK1A1 = 0 | CSNK1D 0 | DDR1 = 0 | DYRK1B 0 | DYRK2 = 0

NCCN1CCN(C/C=C/C(=O)N2CCC[C@@H](n3nc(-c4ccc(Oc5ccccc5)cc4)c4c(N)ncnc43)C2)CC1 [Ibrutinib-MPEA] (10 µM)
inactive: CDK7 = 0 | CDK9 = 0 | CHEK2 = 0 | CSF1R 0 | CSK 0 | CSNK1A1 = 0 | CSNK1D 0 | DDR1 = 0 | DYRK1B 0 | DYRK2 = 0

(list continues)

C[C@@H](c1ccc2nccn2c1)n1nnc2ncc(-c3cnn(C)c3)nc21 [Savolitinib] (10 µM)
inactive: CDK7 = 0 | CDK9 = 0 | CHEK2 = 0 | CSF1R 0 | CSK 0 | CSNK1A1 = 0 | CSNK1D 0 | DDR1 = 0 | DYRK1B 0 | DYRK2 = 0

O=C(NCCO)c1ccc2c(c1)nc(Nc1cccc(Cl)c1)c1ccncc12 [CK2 inhibitor 2] (10 µM)
inactive: CDK7 = 0 | CDK9 = 0 | CHEK2 = 0 | CSF1R 0 | CSK 0 | CSNK1A1 = 0 | CSNK1D 0 | DDR1 = 0 | DYRK1B 0 | DYRK2 = 0

CN(C)CCN(Cc1ccc(Cl)cc1)c1ccccn1 [Chloropyramine hydrochloride] (10 µM)
inactive: CDK7 = 0 | CDK9 = 0 | CHEK2 = 0 | CSF1R 0 | CSK 0 | CSNK1A1 = 0 | CSNK1D 0 | DDR1 = 0 | DYRK1B 0 | DYRK2 = 0

O=c1oc2cc(O)ccc2c2ccccc12 [Urolithin B] (10 µM)
inactive: CDK7 = 0 | CDK9 = 0 | CHEK2 = 0 | CSF1R 0 | CSK 0 | CSNK1A1 = 0 | CSNK1D 0 | DDR1 = 0 | DYRK1B 0 | DYRK2 = 0

OCCNC1CCCc2c1[nH]c1ccc(-c3ccccc3)cc21 (stereo not given) (2.5 µM)
inactive: CDK7 = 0 | CDK9 = 0 | CHEK2 = 0 | CSF1R 0 | CSK 0 | CSNK1A1 = 0 | CSNK1D 0 | DDR1 = 0 | DYRK1B 0 | DYRK2 = 0

CCc1cc(O)c(F)cc1-c1ccc2c(-c3nc4c([nH]3)CN(C3CCN(C)CC3)CC4)n[nH]c2c1 [JAK-IN-5 (hydrochloride)] (2 µM)
inactive: CDK7 = 0 | CDK9 = 0 | CHEK2 = 0 | CSF1R 0 | CSK 0 | CSNK1A1 = 0 | CSNK1D 0 | DDR1 = 0 | DYRK1B 0 | DYRK2 = 0

Cc1cc(NC(=O)c2cccc(NC(=O)/C=C/CN(C)C)c2)ccc1Nc1nccc(-c2cccnc2)n1 (10 µM)
inactive: CDK7 = 0 | CDK9 = 0 | CHEK2 = 0 | CSF1R 0 | CSK 0 | CSNK1A1 = 0 | CSNK1D 0 | DDR1 = 0 | DYRK1B 0 | DYRK2 = 0

COCCOc1cnc(Sc2cc(C)c(-c3csc(NC(=O)c4ccncc4)n3)c(C)c2)cn1 [T-1101 (tosylate)] (2.5 µM)
inactive: CDK7 = 0 | CDK9 = 0 | CHEK2 = 0 | CSF1R 0 | CSK 0 | CSNK1A1 = 0 | CSNK1D 0 | DDR1 = 0 | DYRK1B 0 | DYRK2 = 0

Cc1ccc(NC(=S)NNc2c([N+](=O)[O-])cc(C(F)(F)F)cc2[N+](=O)[O-])cc1Cl (10 µM)
inactive: CDK7 = 0 | CDK9 = 0 | CHEK2 = 0 | CSF1R 0 | CSK 0 | CSNK1A1 = 0 | CSNK1D 0 | DDR1 = 0 | DYRK1B 0 | DYRK2 = 0
